Experimental data published in patent US8680073B2, “Stable hyaluronan/steroid formulation” (Genzyme Corporation, priority 2009, dated 2014).
At least one compound was matched to its structure with a doubt left.

Assay: Rheology of HA viscosupplement/steroid formulations by heat treatment
Type: physicochemical
Settings: formulations of HARC with the steroid, compared to control without steroid
Protocol: We conducted various experiments in which a number of steroids, both soluble and insoluble, were mixed with HA-based viscosupplements, and the heat stability of the HA/steroid formulations were evaluated at 121° C. for 30 min (simulated autoclave conditions), to achieve a bioburden inactivation of approximate 30 Fo, where Fo is the total heat applied during the cycle to achieve a desired probable inactivation ratio). Formulations were also evaluated after heating at 80° C. for 24 hours (simulated two year room temperature shelf-life).
Specifically we tested the TAH mixtures with SYNVISC® and hylastan products of Genzyme Corporation, Framingham Mass.^1 The rheological properties of the heat treated SYNVISC®/steroid and hylastan SGL-80/steroid formulations plus their controls are listed in Tables 1a and 1b, respectively, set out below. 1 Synvisc is a gel-like mixture that is made up of hylan A fluid, hylan B gel, and salt water. Hylan A and hylan B are made from a substance called hyaluronan (also known as sodium hyaluronate) from chicken combs.

SMILES	Effect of the steroid on HARC properties after heat treatment
CC(=O)OCC(=O)[C@@]1(O)CC[C@H]2[C@@H]3C[C@H](C)C4=CC(=O)C=C[C@]4(C)[C@H]3[C@@H](O)C[C@@]21C [methyl prednisolone acetate]	exacerbated degradation of HARC properties after heat treatment
CC1(C)O[C@@H]2C[C@H]3[C@@H]4CCC5=CC(=O)C=C[C@]5(C)[C@@]4(F)[C@@H](O)C[C@]3(C)[C@]2(C(=O)CO)O1 [triamcinolone acetonide]	exacerbated degradation of HARC properties after heat treatment
